Assay results reported in publication PMC8261488, “Contraceptive progestins with androgenic properties stimulate breast epithelial cell proliferation” (EMBO Molecular Medicine, 2021).

Experiments:
mouse mammary organoids = experiment: RNA sequencing of mouse mammary organoids stimulated ex vivo with R5020; assay type: cell-based; settings: R5020 20 nM, 6 h, adj. P.Val < 0.05
Source text: To test this hypothesis, we sought for biological readouts in physiologically relevant models. First, we recurred to using an ex vivo assay for the transcriptional response of the mouse mammary epithelium to hormones. We isolated mammary glands from several inbred adult female mice, treated them mechanically and enzymatically to generate epithelial‐enriched organoids, which remain hormone‐responsive (Ayyanan et al, 2011), and exposed them either to vehicle or to the stable progesterone mimic promegestone (R5020, 20 nM) for 6 h and performed RNA sequencing (Fig 1A). Three independent experiments were performed, and principal component analysis (PCA) grouped the samples according to treatment (Fig 1B). […] Together, these observations confirm that PR signaling is intact in this ex vivo model and that the functionally important factors, Rankl and Wnt4, are robust PR target genes in the mouse mammary epithelium.
Animal experiments were performed in accordance with protocol approved by the Service de la Consommation et des Affaires vétérinaires of Canton de Vaud (VD 1865.3, VD 1865.4). NOD. Cg‐Prkdc^scid Il2rg^tm1Wjl/SzJ mice (Charles River), BalbC, and C57Bl6 breeders were purchased from Jackson Laboratories. Mammary glands were isolated from 18‐ to 35‐week‐old mice, lymph nodes removed, minced with surgical blades, and digested in DMEM/F12, 1% penicillin/streptomycin B with collagenase A 0.25 mg/ml (Roche). Tissue was concomitantly stimulated with hormones for 1, 2, or 6 h and centrifuged at 652 g for 5 min. Fat was removed, and pellet containing organoids washed with phosphate‐buffered saline (PBS), resuspended 5 min in 3 ml red cell blood lysis buffer and washed twice with PBS.
RNAseq libraries were prepared using Truseq Stranded RNA producing single‐end reads of 100 bp and sequenced on Illumina Hiseq 2500 instrument. […]
Sequencing reads were quality controlled using FastQC (v0.11.8) (Wingett & Andrews, 2018). Mouse raw reads were aligned to the mouse genome (mm9) and human raw reads to the human genome (hg19) using TopHat (v2.0.11) (Kim et al, 2013). […]

[1] = tested on: human breast tissue microstructures (EpCAM+ cells); experiment: RNA sequencing of EpCAM+ cells from human breast tissue microstructures stimulated ex vivo; assay type: cell-based; settings: 14–18 h exposure; for number of genes with affected expression levels: adj.P < 0.05, n = 3

Structure (SMILES): CCC(=O)[C@@]1(C)CC[C@H]2[C@@H]3CCC4=CC(=O)CCC4=C3CC[C@@]21C [R5020, promegestone]
- differentially expressed genes (mouse mammary organoids): 162
- down modulated genes (mouse mammary organoids): 55
- upregulated genes (mouse mammary organoids): 107
- share of progesterone-induced gene expression changes also induced by R5020 [1]: More than 90%
- number of genes with affected expression levels [1]: 112

Structure (SMILES): CC(=O)[C@H]1CC[C@H]2[C@@H]3CCC4=CC(=O)CC[C@]4(C)[C@H]3CC[C@]12C [progesterone]
- number of genes with affected expression levels [1]: 65
